Test results taken from patent US20090155236A1, “Peptide sequence for modulation of delta protein kinase c” (NATIONAL INSTITUES OF HEALTH (NIH), U.S. DEPT OF HEALTH AND …, priority 2004, published 2009).
No constants are given. Whether binding was seen depends on the method and setting. Binding can be weak; no strength is given. For part of these data: Where a sequence is shown, tags or fusion partners need not be part of it.

B1: annexin I (protein)
chain: AMVSEFLKQAWFIENEEQEYVQTVKSSKGGPGSAVSPYPTFNPSSDVAALHKAIMVKGVDEATIIDILTKRNNAQRQQIKAAYLQETGKPLDETLKKALTGHLEEVVLALLKTPAQFDADELRAAMKGLGTDEDTLIEILASRTNKEIRDINRVYREELKRDLAKDITSDTSGDFRNALLSLAKGDRSEDFGVNEDLADSDARALYEAGERRKGTDVNVFNTILTTRSYPQLRRVFQKYTKYSKHDMNKVLDLELKGDIEKCLTAIVKCATSKPAFFAEKLHQAMKGVGTRHKALIRIMVSRSEIDMNDIKAFYQKMYGISLCQAILDETKGDYEKILVALCGGN
B2: peptide MQAARDP (SEQ ID NO:12) fused to alkaline phosphatase (peptide, not shown: large carriers)
chain: MQAARDP
B3: peptide MRAAENP (SEQ ID NO:13) fused to alkaline phosphatase (peptide, not shown: large carriers)
chain: MRAAENP
B4: peptide MRAAQDP (SEQ ID NO:14) fused to alkaline phosphatase (peptide, not shown: large carriers)
chain: MRAAQDP
B5: peptide MEAAEDP (SEQ ID NO:15) fused to alkaline phosphatase (peptide, not shown: large carriers)
chain: MEAAEDP
B6: peptide MRAAEDP (SEQ ID NO:18) fused to alkaline phosphatase (peptide, not shown: large carriers)
chain: MRAAEDP
B7: peptide MRAAADP (SEQ ID NO:16) fused to alkaline phosphatase (peptide, not shown: large carriers)
chain: MRAAADP
B8: peptide MAAAEDP (SEQ ID NO:17) fused to alkaline phosphatase (peptide, not shown: large carriers)
chain: MAAAEDP

What was measured:
[1] = biological target: recombinant full-length delta PKC (rat); assay: ELISA
[2] = biological target: recombinant full-length delta PKC (rat); assay: ELISA, delta PKC immobilised, peptide-alkaline phosphatase fusion
[3] = biological target: recombinant full-length delta PKC (rat); assay: ELISA, delta PKC immobilised, peptide-alkaline phosphatase fusion, absorbance at 405 nm

Binder | binding [1] | binding [2] | binding [3]
B1 | binds |  | 
B2 |  | binds | binds
B3 |  | binds | binds
B4 |  | binds | binds
B5 |  | binds | binds
B6 |  |  | binds
B7 |  |  | no binding
B8 |  |  | no binding
